These are yes or no findings as the source states them, for the method shown. Binding seen in cells or lysates may run through a third protein. Some results given as binding are weak or reduced against the parent protein; the word gives no strength.
Assays:
[1] = biological target: Musashi-2 (MSI2), endogenous (human (endogenous in ST8814)) (UniProt Q96DH6); experiment: co-IP; endogenous proteins in ST8814 cells; IP with the MSI2 antibody or the CAV1 antibody, Western blot
[2] = biological target: GST-MSI2 fusion protein (UniProt Q96DH6); experiment: pull-down; GST-MSI2 purified from bacteria immobilized on GST beads, incubated with lysates of HEK293T cells transiently transfected with His-tagged CAV1, 2 h at 4 °C, washed five times, Western blot; only the target purified
[3] = biological target: Caveolin-1 (CAV1), endogenous (human (endogenous in ST8814)) (UniProt Q03135); experiment: co-IP; endogenous proteins in ST8814 cells; IP with the MSI2 antibody or the CAV1 antibody, Western blot

Amino acid sequences for entries named in this document (tags omitted).
UniProt Q96DH6: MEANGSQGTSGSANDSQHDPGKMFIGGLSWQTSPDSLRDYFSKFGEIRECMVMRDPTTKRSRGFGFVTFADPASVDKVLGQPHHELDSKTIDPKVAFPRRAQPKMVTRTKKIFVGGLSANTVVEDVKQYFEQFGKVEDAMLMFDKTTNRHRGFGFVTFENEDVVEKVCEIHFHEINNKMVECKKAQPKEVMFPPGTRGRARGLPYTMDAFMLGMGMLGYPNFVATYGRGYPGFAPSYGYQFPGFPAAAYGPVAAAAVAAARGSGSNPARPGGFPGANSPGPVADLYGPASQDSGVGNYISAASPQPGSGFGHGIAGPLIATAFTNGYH
UniProt Q03135: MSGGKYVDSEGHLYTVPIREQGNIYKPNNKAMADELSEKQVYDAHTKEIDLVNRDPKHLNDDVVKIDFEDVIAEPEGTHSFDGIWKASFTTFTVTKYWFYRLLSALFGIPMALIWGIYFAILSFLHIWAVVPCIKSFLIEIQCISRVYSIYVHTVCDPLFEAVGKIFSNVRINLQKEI

Caveolin-1 (CAV1), endogenous (from UniProt Q03135 1-178)
binding [1]: binds

His-tagged full-length CAV1 (from UniProt Q03135 1-178)
binding [2]: binds

Musashi-2 (MSI2), endogenous (from UniProt Q96DH6 1-328)
binding [3]: binds

From article PMC7326958
